Data: patent US9259392B2, “Cochleate compositions directed against expression of proteins” (Rutgers, The State University of New Jersey, priority 2003, dated 2016)
At least one structure is not confirmed: it was looked up by name or label, or the drawing left a doubt.

Test system: Aspergillus fumigatus
Test: Cell phenotype, morphology and killing of Aspergillus fumigatus
Type: cell-based
Settings: sublethal amount

O=c1c2ccccc2[se]n1-c1ccccc1 [ebselen]
hyphal morphology: long thin hyphal elements with diminished branching
